These are yes or no findings as the source states them, for the method shown. Some entries that bind do so weakly or less than the wild type.

By UniProt entry, the sequences of proteins in these tests, tags left out. Where a name states a change or a piece, a line headed by the entry shows the natural chain unless it says otherwise.
UniProt P21439: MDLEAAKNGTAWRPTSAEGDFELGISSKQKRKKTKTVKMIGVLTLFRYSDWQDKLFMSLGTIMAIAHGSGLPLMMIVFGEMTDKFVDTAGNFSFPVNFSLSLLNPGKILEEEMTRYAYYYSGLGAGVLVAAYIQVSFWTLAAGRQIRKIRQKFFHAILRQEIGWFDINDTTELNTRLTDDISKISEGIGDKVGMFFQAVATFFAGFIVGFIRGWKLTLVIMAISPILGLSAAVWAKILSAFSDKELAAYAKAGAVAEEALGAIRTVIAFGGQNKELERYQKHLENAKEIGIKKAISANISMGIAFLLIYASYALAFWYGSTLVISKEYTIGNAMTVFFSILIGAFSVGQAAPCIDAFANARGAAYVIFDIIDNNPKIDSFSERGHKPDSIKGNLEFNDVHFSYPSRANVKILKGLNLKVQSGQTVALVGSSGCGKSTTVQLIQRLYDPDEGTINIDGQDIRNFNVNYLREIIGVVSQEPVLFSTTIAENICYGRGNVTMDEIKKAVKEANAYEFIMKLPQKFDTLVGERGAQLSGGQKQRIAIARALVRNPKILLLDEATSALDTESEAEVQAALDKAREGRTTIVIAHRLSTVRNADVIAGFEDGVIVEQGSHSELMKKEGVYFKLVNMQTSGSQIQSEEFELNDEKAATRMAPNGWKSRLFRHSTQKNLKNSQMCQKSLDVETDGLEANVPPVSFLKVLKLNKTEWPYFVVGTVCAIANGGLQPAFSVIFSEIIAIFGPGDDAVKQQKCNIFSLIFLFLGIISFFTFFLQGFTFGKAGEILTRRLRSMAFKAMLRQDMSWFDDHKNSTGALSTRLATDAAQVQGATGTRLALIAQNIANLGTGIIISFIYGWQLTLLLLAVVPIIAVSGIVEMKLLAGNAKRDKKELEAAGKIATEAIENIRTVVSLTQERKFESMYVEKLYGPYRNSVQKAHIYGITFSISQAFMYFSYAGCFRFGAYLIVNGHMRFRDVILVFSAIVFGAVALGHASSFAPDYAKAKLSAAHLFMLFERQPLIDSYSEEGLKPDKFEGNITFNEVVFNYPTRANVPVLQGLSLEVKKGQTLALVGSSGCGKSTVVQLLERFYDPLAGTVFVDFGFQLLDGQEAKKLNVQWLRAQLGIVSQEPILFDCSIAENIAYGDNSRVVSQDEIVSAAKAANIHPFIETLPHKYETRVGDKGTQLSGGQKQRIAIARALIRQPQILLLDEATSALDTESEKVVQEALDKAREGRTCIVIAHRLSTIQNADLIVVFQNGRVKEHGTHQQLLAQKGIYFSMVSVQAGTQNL
UniProt B5X0E4: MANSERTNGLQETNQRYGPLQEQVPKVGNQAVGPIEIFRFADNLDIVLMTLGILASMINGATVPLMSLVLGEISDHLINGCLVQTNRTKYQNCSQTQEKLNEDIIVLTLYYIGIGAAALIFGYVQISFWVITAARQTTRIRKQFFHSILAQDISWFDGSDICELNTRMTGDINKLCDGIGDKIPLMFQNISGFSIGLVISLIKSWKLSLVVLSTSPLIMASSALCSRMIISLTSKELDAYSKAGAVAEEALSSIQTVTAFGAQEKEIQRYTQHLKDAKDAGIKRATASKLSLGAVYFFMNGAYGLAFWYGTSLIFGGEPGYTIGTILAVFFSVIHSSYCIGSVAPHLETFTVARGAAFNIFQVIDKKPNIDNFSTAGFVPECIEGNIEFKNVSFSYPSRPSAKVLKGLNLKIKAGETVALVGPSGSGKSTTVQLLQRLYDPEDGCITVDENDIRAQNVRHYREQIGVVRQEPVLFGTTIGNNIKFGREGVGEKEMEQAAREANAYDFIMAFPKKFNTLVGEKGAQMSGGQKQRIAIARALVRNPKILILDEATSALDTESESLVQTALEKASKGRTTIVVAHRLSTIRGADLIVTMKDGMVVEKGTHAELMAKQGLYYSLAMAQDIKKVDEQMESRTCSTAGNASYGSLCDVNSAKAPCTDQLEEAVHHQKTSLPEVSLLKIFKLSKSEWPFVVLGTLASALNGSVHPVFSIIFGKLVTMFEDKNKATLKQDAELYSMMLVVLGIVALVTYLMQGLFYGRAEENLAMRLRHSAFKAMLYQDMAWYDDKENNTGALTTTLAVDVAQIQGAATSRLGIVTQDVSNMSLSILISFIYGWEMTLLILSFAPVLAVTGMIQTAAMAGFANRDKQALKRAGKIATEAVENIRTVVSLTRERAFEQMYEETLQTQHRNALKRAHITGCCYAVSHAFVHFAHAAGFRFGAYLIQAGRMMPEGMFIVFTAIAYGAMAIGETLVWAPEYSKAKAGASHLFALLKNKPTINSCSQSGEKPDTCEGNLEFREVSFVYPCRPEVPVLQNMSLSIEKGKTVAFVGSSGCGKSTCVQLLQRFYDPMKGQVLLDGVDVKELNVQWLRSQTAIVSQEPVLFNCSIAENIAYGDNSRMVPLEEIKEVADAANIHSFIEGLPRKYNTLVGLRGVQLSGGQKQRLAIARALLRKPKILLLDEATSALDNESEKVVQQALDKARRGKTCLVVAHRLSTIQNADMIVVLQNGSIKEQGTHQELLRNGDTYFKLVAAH

Test [1] concerns the target T1, ABCB4 peptide segment corresponding to the ABCB5 linear epitope peptide (human) (UniProt P21439).
T1 sequence (peptide, looked up): RFGAYLIVNGHMRFRD
Description: linear peptide ELISA, BSA-conjugated peptides (20 µM), OD 450 nm (mAb-Iso (InVivoPlus+)). (In general: An ELISA detects its analyte on a solid surface through an enzyme-linked reagent.)

Test [2] concerns the target T2, murine ABCB5 peptide segment corresponding to the ABCB5 linear epitope peptide (murine) (UniProt B5X0E4).
T2 sequence (peptide, looked up): RFGAYLIQAGRMMPEG
The description is as above.

Test [3] concerns the target T2, murine ABCB5 peptide segment corresponding to the ABCB5 linear epitope peptide (murine). Nature of the test: linear peptide ELISA (20 uM peptides).
Test [4] shares this target. Description: linear peptide ELISA, BSA-conjugated peptides (20 µM), OD 450 nm (mAb-Iso).

B1: ABCB5-Ab101 (antibody, human IgG1, kappa, V domains shown)
VH: QVQLVQSGAEVKKPGASVKVSCKASGYTFTSYYMHWVRQAPGQGLEWMGIINPSGGSTSYAQKFQGRVTMTRDTSTSTVYMELSSLRSEDTAVYYCARDQAVTGTAYYYYYGMDVWGQGTTVTVSS
VL: EIVLTQSPGTLSLSPGERATLSCRASQSVNSNYLAWYQQKPGQAPRLLIYGTSSRATGIPDSFSGSGSGTDFTLTISRLEPEDFAVYYCQQFGSSPLTFGGGTKVEIKR
notes: Fully human monoclonal IgG1 kappa
On to B1, for which the binding result in test [1] and in test [2] was “binds” each time.

B2: ABCB5-Ab43 (antibody, V domains shown)
VH: QVQLVQSGAEVKKPGASVKVSCKASGYTFTSYYMHWVRQSPGQGLEWMGIINPSGGSTSYAQKFQGRVTMTRDTSTSTVYMELSSLRSEDTAVYYCARDQAVTGTAYYYYYGMDVWGQGTTVTVSS
VL: EIVLTQSPGTLSLSPGERATLSCRASQSVNSKYLAWYQQKPGQAPRLLIYGTSSRATGIPDSFSGSGSGTDFTLTISRLEPEDFAVYYCQQFGSSPLTFGGGTKVEIK
B2: the binding entry in test [1] and in test [2] was “binds” each time.

B3: ABCB5-Ab44 (antibody, V domains shown)
VH: QVQLVQSGAEVKKPGASVKVSCKASGYTFTSYYMHWVRQAPGQGLEWMGIINPSGGSTSYAQKFKGRVTMTRDTSTSTVYMELSSLRSEDTAVYYCARDQAVTGTAYYYYYGMDVWGQGTTVTVSS
VL: EIVLTQSPGTLSLSPGERATLSCRASQSVNSNYLAWYQQKPGQAPRLLIYGTSSRATGIPDSFSGSGSGTDFTLTISRLEPEDFAVYYCQQFGSSPLTFGGGTKVEIK
notes: also called A44; F01
For the molecule B3, the binding result in test [1] and in test [2] was “binds” throughout.

B4: ABCB5-Ab45 (antibody, V domains shown)
VH: QVQLVQSGAEVKKPGASVKVSCKASGYTFTNYYMHWVRQAPGQGPEWMGIINPSGGSTSYAQKFQGRVTMTRDTSTSTVYMELSSLRSEDTAVYYCARDLAVTGTAYYYYYGMDVWGQGTTVTVSS
VL: EFVLTQSPGTLSLSPGERATLSCRASQSVNSNYLAWYQQKPGQAPRLLIYGTSSRATGIPDSFSGSGSGTDFTLTISRLEPEDFAVYYCQQFGSSPLTFGGGTKVEIK
Take B4: the binding result in test [1] and in test [2] was “binds” throughout.

B5: ABCB5-Ab42 (antibody, V domains shown)
VH: QVQLVQSGAEVKKPGASVKVSCKTSGYTFTSYYMHWVRQSPGQGLEWMGIINPSGGSTSYAQKFQGRVTMTRDTSTSTVYMELSSLRSEDTAVYYCARDQAVTGTAYYYYYGMDVWGQGTTVTVSS
VL: EIVLTQSPGTLSLSPGERATLSCRASLSVNSNYLAWYQQKPGQAPRLLIYGTSSRATGIPDSFSGSGSGTDFTLTISRLEPEDFAVYYCQQFGSSPLTFGGGTKVEIK
notes: detection was with an anti-human secondary antibody
For B5, the binding result in test [1] and in test [2] was “binds” throughout.

B6: ABCB5-Ab100 (antibody, human IgG1, kappa, V domains shown)
VH: EVQLVESGGGLVQPGGSLRLSCAASGFTFSSYSMNWVRQAPGKGLEWVSYISSSSSTIYYADSVKGRFTISRDNAKNSLYLQMNSLRDEDTAVYYCASNYQYGDYGGYWGRGTLVTVSS
VL: AIQLTQSPSSLTGSVGDRVTITCQASHDISNFLNWYQQKPGQAPKLLIYDAYNLQTGVPSRFSGTGSGTHFTLTINSLQPEDVGTYFCQQYDYFLSITFGQGTRLEIKR
Regarding B6, the binding result in test [3] and in test [4] was “binds” each time.

Values taken from patent US20230203153A1 (CHILDREN S MEDICAL CENTER, published 2023).
